The whole screen tested about 52,000 sequences, of which about 210 (0.4%) were called active.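 How the source made its calls: active means gene whose silencing raises cell survival under the drug, median off-target-corrected z-score across its silencing RNAs 2 or more; inactive means the rest.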 The list shows a part of the results.

A short description of this assay: Resistance to Poly (ADP-Ribose) Polymerase inhibitor: Gene Identification via Genome-wide siRNA Screen. As to conditions: mouse BRCA2 R2336H ES cells, olaparib, CellTiter-Glo viability; hits give high values. In a few lines: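 Mouse BRCA2 R2336H ES cells were reverse-transfected with siRNA (20 nM final), treated at 48 h with 500 nM olaparib, and read by CellTiter-Glo after 72 h. Scores: MAD-based z per siRNA, median per gene, seed off-target correction.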
Turning to “CCGAUAAAAGAUGACCUCATT against D17H6S56E-5”, the z-score was inactive: -1.63. Consider GGAAAGGAAAGCUAUGACATT against Crhr2, for which the z-score was inactive: 1.71. In the case of GGGCUCUAGAGUAAAAUAATT against H3f3b, the z-score was inactive: -2.55. For the sequence “CCUCUUUCAUAACUGAUGUTT against 9830169C18Rik”, the z-score is inactive: -1.73. With GGAAAAGUGGACAAAAUUGTT against Ncoa6, the z-score was inactive: 1.57. GGAACUUGAGUUGCUACAGTT against Il12rb1: the z-score is inactive: -0.805.

Turning to “GCAGAGUGCUCGUAGAGUGTT against D930036F22Rik”, the z-score is inactive: -1.27.

For the sequence GGACUCGAACUCAGAACCATT against Gdf15, the z-score is inactive: -0.554.

With “CCGCUUGGCUAGCUUUAUATT against 2810422M04Rik”, the z-score was inactive: -0.16. Then “GAAUGUUUACAUGCCACACTT against C330008L01Rik”, with inactive: 0.632.

For the sequence GGCAGAAACUAAGAAUGAATT against Mx1, the z-score is inactive: -0.613. CCACAAGCUAAUACAUGCUTT against Ubadc1: the z-score was inactive: 0.121. For the sequence GCCAAUAAACGAAACUCUGTT against BC020184, the z-score is inactive: -0.666. As for GCAAGAUCCGAUUUCUGAUTT against Snrpd3, the z-score is inactive: -2.48. Regarding CGACGUAUCCGUUCUAUAATT against Eif2s1, the z-score is inactive: -2. Turning to GGUCAUUAUACCAUUGGCATT against Tuba7, the z-score was inactive: 0.861. As to GGUUGUCACCAUCAGUCCUTT against V1ri6, the z-score is inactive: 0.462. For the sequence GGUGGUGAAUAUGAUGAUATT against AW550801, the z-score was inactive: -0.482. Turning to CGAGCGACUGAAAAGAUAATT against Atad3a, the z-score is inactive: -0.562. As for GGGUGAUGCAGAUCAUCGUTT against Prkcq, the z-score is inactive: -0.275. For the sequence CGAGUGAACGUGAAAAAUGTT against Myl2, the z-score is inactive: 0.324. The result for GCCACGUCUGAACACUUCATT against Vamp8 reads inactive: -1.05; that for GCUAAUCAGGUAGUAAUUCTT against Usp9y, inactive: -0.966. In the case of GGAGAUUAGUUGUGACUGATT against Clecsf5, the z-score was inactive: -0.073. As to GCCUAUUCGGAUUAUUGAUTT against Gab1, the z-score is inactive: 0.661.

As for GGCCUUUGCUGUGAUGCUGTT against Ormdl3, the z-score is inactive: -0.115. Consider “GGCUGGAUGAACUUGCUCATT against B230365F16Rik”, for which the z-score was inactive: 0.704. Then “GGGAUCAUGAAACAUGUCGTT against 1700020D05Rik”, with inactive: 2.03.

On to GGAAGAGCAUGAGUCGUUUTT against Scarb2, for which the z-score was inactive: -0.209. On to GCAAAUACGGCGGAUGAACTT against Sesn3, for which the z-score was inactive: -0.331. For “GGUAUUUAAUGGAAGCCUGTT against C330005M16Rik”, the z-score is inactive: -0.698. Then GGCUGUUCUUCAAGAAUAUTT against Trim32, with inactive: -0.661. Then GCUGGAAAAGUGCUGUGGGTT against Sult1c1, with inactive: -1.17; and CGGGACCUGUGGAAUUCUCTT against Scap, with inactive: 0.337. On to GCCUGAUCCUAAAUUUCCUTT against Svs1, for which the z-score is inactive: 0.981. For the sequence GCACUAAAGGGCUUUUCAUTT against Serping1, the z-score is inactive: -0.977. With CUAUCACAGCCCUGUACUUTT against Olfr694, the z-score was inactive: 0.236.

Regarding GGUAGACCUAAAUAAUAUGTT against LOC380997, the z-score is inactive: 1.02. Then GGGAAGAUGUGGAUGUCAUTT against Oprk1, with inactive: -0.242; and GGAGAUCUAGUGAUCUUUUTT against Pank1, with inactive: -0.187; and GGACCUCAGUCACUUCCAATT against Etv4, with inactive: -0.421. With GGCCCUCAAUGACAUAAGCTT against Srm, the z-score is inactive: -0.0642. Consider GGACAAACUAGCAACCACUTT against Mtap7, for which the z-score was inactive: -1.98. On to GGAGCUAUACUGCUUUUCCTT against Mtmr7, for which the z-score is inactive: 0.468.

CCCUUAUGAUGUAUUCCUGTT against Ddr2: the z-score was inactive: 1.61. Regarding “GGAUUCAGCAGCUUCAGAATT against 2810428I15Rik”, the z-score was inactive: 1.66. Consider GCGGGAGCGAGAAAAACUGTT against Dhx16, for which the z-score was inactive: -0.907. With GCAUGGAACAAGGUUGCUCTT against Pa2g4, the z-score was inactive: 0.803.

Regarding “CCCUUACAACUCAAGUAUCTT against 9430095K15Rik”, the z-score was inactive: 0.674.

For the sequence GGCUAUGUUUAUAUCAUCGTT against Klhl10, the z-score is inactive: 0.847. For the sequence GGCUUGAUAUUUGUGGUUGTT against Arf3, the z-score is inactive: -0.0612.

GGAAGUGUGAUGAAUGAUATT against Cbara1: the z-score is inactive: 1.32.

With GGCAAGGAAGUCUAAAGAATT against Fbxo8, the z-score was inactive: -1.12. In the case of GCGGCAAGAUUAAUAAGUCTT against Mpzl1, the z-score is inactive: -1.21.

For the sequence GGUAUCUGACCUGAGCAUGTT against Msln, the z-score is inactive: -0.285. Then GGAUCCUCGGGAGUACAUGTT against BC043118, with inactive: 0.82; and CCAAGUUUCCCGGUGAUAATT against Pla2g2a, with inactive: -1.6; and GGUGUGUGUUCCACUAAAGTT against Ptpn18, with inactive: 1.12. Take GGAAAUUUUCAAGCUCAAGTT against Gsdmdc1: the z-score was inactive: -2.78.

Regarding “CCUGAUAGUAUUUUACGAGTT against 4933402B14Rik”, the z-score was inactive: 0.826. Then CGCAUUACAUUAGCCAAAATT against AI428795, with inactive: -0.00325. Then GCCGGGAAGACAAUAACUGTT against Il10, with inactive: -1.09; and GGUCUGUGAGGAACAAAAGTT against Ccnd2, with inactive: 0.199; and GGUUAUUAUGACCAAGAAATT against Sf3b1, with inactive: -3.67. Take “GGAGCAAAGGGUAGGGAAATT against 1700052K11Rik”: the z-score is inactive: -1.29.

GGUCAGAGAAAUGAUGUCUTT against Osbpl11: the z-score is inactive: -1.86. GGCAUUAAAUGAUUACAAGTT against Mtf2: the z-score is inactive: 1.11. Take GGUUCAGCCUGAAAUAGAGTT against Syt5: the z-score was inactive: -0.216. On to “GGCACUGAGAUCUGUAAUUTT against D11Ertd498e”, for which the z-score is inactive: -0.747. On to CCGAGGAUUUGAAACAGUATT against Pir, for which the z-score was inactive: -2.2. On to GGACUUCUCUGUGAAGAUGTT against Ctsf, for which the z-score was inactive: -1.19. Consider “GGCACCUAACAAAUUAGUCTT against 4921517N04Rik”, for which the z-score is inactive: 0.675. On to GGAGGACUUCCAGAUCCAATT against Robo4, for which the z-score was inactive: 0.15. As for CCCUGACUUGUCCUUACAATT against Trem3, the z-score was inactive: 0.417. Consider GCCAGUGCACUCCUCUUUUTT against Mmrp19, for which the z-score was inactive: 0.352. With CCAAUAAGGAAAAAUCUGGTT against Cenpc1, the z-score was inactive: 0.87. With GGUUCACGGUUUAUAAAGUTT against Sgk3, the z-score is inactive: 0.847. As to GGAAUUUAUUGAGGUCUUUTT against Plcl2, the z-score was inactive: 0.0628. Take GGAGAUGAACCAUUAUGUCTT against Mycbp: the z-score was inactive: -0.0097. As to CGGCCUUCAUCUGCCUUUUTT against Olfr1222, the z-score was inactive: -2.1. With GACCUUUCUCUUCUUGGCUTT against Olfr434, the z-score was inactive: 0.528. Then GGCCAAGUUCCAAACAAGATT against Zfp109, with inactive: -0.049; and GGGCUUCUUCAAGAGAACGTT against Nr4a3, with inactive: 1.73. As for GGACUAUUAGCUCGAACUUTT against Dlx2, the z-score was inactive: 0.0363. Then GGAUAUUCAGGACUUUGAUTT against Slc2a1, with inactive: -0.484. With GCAAUCUUGAGUUUGCACATT against Haghl, the z-score was inactive: 0.745. “GGAAAGAAAGGGAACAAAATT against 2810027O19Rik”: the z-score is inactive: -0.8. As to GCACUCAAGGUUUUACUGUTT against Satb1, the z-score was inactive: 0.478. With CGAUGGAAGUUUAAACCUCTT against Htr1a, the z-score was inactive: 0.54.

For the sequence GCGAAGAAGAAGAUAGUAATT against Zfp265, the z-score is inactive: -0.0605. With GGAAGCAAAUGGUUUGUAATT against Sfrs2, the z-score is inactive: -2.38. The result for “GGACUAUCAGCAUUUCGUUTT against 1500041J02Rik” reads inactive: 0.942; that for “GGAAUUGACAUAUUCAGUCTT against 9130221H12Rik”, inactive: 0.3. For the sequence GGCGUGUCAAAGAAAUUUUTT against V1rd7, the z-score is inactive: 1.41. Then GGACUUUACAGACACUUUUTT against Aof1, with inactive: -0.77; and GGAAGAUCCUCGAUAGUCATT against Rgs7, with inactive: 1.13. Consider “GGACACACAGUAUUGUUUGTT against 2310010M24Rik”, for which the z-score is inactive: -0.174. GUCUUUCUGUUACCUUGGCTT against LOC384806: the z-score is inactive: -0.4. With GGAACUAAAGCGAUAUUUATT against Thrap6, the z-score was inactive: -0.755.

For GCAUGCUUUCUGAAUACAATT against Cdk8, the z-score was inactive: 0.125.

Regarding GGUUUAGGAUUUUUUGUUGTT against Ccr5, the z-score is inactive: -0.207. For GGAUAAAAUUGAGUCUAUGTT against Was, the z-score was inactive: -1.27.

Take GGCUUCUCAUUGUGAAUAUTT against D6Mm5e: the z-score was inactive: 1.46. As for GGGUGAGUCACGAAAGUCATT against Epor, the z-score was inactive: -0.644.

In the case of GCAUGCAUCUUCCUUCGACTT against Cabp2, the z-score was inactive: -1.07.
